Our source for the log2 fold change values is the supplement of paper PMC10849652.

Chains of the proteins cited; added tags and fusions are not shown. Lines headed by an entry give the natural chain unless they say otherwise; changes in a name come on top.
UniProt P50613: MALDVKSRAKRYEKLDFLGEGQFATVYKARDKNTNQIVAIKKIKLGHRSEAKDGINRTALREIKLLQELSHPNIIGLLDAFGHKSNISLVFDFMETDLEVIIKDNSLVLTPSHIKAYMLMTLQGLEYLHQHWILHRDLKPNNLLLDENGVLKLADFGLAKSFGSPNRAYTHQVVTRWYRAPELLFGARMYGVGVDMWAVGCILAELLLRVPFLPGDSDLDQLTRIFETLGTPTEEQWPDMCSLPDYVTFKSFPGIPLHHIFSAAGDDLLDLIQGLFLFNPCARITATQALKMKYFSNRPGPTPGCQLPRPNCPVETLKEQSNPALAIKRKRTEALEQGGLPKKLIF
UniProt Q96FF9: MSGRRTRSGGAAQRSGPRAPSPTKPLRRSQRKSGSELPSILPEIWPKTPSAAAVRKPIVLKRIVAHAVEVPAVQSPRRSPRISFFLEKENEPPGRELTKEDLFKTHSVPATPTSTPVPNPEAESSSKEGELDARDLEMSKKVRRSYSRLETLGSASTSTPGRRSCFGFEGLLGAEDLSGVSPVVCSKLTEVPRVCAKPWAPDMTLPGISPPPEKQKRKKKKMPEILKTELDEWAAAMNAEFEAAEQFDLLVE
UniProt Q6ZMG9: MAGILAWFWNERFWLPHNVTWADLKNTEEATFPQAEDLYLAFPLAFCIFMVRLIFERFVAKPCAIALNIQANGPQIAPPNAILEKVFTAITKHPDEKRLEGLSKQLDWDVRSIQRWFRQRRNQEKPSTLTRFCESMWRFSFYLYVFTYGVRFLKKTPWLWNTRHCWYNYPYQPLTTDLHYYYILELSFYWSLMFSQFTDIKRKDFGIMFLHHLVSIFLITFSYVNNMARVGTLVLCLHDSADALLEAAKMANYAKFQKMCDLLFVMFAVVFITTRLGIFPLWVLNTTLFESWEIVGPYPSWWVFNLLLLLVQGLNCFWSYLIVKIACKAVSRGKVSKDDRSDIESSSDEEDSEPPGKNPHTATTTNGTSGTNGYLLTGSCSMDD
UniProt P57076: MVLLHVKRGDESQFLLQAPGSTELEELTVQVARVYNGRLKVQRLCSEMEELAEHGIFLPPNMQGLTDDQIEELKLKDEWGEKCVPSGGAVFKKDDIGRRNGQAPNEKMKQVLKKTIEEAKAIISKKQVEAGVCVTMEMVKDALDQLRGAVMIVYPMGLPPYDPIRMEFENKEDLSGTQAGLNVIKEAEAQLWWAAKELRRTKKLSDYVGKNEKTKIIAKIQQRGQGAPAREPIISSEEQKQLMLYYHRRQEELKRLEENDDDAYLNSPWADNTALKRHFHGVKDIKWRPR
UniProt Q96JB5: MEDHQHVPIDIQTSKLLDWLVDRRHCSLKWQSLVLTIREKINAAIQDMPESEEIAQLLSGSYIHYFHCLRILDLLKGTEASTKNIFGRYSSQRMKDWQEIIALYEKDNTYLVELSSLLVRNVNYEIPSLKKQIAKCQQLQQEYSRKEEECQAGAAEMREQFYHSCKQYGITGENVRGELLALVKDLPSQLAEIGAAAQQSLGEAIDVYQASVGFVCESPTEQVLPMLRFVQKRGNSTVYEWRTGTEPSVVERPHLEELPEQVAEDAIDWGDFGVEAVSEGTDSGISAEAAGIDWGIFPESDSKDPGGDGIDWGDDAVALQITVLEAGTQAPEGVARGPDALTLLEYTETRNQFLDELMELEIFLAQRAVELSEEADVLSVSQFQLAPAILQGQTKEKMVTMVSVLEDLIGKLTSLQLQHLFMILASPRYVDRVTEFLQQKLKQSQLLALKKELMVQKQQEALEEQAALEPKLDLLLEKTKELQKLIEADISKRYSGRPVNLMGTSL
UniProt O95319: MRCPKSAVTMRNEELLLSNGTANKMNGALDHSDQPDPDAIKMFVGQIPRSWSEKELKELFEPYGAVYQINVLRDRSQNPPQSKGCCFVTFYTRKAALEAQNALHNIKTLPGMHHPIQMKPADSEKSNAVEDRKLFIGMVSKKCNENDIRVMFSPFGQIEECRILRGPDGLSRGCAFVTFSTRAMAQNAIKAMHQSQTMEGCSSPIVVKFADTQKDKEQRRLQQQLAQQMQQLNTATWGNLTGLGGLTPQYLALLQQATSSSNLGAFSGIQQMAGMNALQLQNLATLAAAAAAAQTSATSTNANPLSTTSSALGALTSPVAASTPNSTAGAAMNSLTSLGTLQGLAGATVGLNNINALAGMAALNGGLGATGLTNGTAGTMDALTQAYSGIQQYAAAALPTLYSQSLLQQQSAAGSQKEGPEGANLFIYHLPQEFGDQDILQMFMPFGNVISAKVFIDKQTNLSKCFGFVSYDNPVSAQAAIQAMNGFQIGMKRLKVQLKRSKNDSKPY
UniProt Q00587: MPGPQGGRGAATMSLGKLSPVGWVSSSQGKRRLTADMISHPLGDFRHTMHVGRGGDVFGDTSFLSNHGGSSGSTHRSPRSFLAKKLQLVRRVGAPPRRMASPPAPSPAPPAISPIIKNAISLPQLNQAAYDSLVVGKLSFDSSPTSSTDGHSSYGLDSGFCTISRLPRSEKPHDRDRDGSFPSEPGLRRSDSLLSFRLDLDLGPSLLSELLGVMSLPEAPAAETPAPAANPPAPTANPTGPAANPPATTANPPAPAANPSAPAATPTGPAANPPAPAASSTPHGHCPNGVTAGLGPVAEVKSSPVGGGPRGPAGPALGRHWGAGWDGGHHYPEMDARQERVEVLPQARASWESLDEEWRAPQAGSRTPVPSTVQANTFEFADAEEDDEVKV
UniProt P49427: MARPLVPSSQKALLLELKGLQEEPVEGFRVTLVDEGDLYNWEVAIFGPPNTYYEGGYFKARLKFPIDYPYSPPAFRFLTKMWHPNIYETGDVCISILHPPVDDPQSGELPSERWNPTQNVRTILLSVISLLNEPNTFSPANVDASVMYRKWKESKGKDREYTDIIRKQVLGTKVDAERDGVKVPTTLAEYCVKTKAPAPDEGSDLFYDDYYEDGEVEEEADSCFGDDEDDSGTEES
UniProt Q71F23: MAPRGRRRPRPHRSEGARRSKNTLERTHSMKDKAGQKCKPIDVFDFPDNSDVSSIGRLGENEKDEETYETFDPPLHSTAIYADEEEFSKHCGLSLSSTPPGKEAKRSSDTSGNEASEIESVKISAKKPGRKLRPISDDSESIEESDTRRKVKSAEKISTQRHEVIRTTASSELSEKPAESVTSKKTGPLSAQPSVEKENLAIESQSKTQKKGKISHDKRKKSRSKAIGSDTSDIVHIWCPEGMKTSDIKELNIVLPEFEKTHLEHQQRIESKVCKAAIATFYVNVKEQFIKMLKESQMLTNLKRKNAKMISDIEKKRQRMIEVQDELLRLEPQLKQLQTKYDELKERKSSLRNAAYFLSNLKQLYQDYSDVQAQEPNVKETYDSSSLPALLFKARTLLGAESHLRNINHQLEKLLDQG
UniProt Q9BS16: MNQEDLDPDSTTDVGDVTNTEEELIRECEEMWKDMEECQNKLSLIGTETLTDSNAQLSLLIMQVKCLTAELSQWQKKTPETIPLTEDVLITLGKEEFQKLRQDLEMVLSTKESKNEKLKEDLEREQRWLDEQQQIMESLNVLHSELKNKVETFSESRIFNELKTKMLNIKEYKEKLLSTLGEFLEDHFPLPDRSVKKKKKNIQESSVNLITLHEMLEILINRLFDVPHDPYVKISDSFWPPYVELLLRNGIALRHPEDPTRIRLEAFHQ
UniProt P06493, whole entry, looked up: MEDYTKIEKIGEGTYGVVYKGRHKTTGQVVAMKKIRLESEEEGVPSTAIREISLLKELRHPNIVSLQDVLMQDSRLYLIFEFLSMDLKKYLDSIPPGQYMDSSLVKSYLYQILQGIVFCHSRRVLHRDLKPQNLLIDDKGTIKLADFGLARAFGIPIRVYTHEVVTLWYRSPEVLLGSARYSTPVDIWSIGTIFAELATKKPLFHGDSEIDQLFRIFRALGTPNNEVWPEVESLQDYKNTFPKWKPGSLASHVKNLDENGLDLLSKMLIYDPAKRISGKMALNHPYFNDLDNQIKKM
UniProt Q9C0F1: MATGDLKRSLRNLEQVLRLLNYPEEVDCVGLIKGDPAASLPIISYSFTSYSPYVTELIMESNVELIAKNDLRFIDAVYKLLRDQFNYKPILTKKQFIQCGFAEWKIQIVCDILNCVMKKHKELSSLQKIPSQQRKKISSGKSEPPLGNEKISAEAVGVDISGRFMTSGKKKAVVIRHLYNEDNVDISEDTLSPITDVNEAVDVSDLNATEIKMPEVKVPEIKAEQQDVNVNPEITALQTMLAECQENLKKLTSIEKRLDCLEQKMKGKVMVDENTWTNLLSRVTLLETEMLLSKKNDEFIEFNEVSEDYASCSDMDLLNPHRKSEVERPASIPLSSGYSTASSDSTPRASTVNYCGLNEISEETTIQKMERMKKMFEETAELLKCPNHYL
UniProt Q5VT25: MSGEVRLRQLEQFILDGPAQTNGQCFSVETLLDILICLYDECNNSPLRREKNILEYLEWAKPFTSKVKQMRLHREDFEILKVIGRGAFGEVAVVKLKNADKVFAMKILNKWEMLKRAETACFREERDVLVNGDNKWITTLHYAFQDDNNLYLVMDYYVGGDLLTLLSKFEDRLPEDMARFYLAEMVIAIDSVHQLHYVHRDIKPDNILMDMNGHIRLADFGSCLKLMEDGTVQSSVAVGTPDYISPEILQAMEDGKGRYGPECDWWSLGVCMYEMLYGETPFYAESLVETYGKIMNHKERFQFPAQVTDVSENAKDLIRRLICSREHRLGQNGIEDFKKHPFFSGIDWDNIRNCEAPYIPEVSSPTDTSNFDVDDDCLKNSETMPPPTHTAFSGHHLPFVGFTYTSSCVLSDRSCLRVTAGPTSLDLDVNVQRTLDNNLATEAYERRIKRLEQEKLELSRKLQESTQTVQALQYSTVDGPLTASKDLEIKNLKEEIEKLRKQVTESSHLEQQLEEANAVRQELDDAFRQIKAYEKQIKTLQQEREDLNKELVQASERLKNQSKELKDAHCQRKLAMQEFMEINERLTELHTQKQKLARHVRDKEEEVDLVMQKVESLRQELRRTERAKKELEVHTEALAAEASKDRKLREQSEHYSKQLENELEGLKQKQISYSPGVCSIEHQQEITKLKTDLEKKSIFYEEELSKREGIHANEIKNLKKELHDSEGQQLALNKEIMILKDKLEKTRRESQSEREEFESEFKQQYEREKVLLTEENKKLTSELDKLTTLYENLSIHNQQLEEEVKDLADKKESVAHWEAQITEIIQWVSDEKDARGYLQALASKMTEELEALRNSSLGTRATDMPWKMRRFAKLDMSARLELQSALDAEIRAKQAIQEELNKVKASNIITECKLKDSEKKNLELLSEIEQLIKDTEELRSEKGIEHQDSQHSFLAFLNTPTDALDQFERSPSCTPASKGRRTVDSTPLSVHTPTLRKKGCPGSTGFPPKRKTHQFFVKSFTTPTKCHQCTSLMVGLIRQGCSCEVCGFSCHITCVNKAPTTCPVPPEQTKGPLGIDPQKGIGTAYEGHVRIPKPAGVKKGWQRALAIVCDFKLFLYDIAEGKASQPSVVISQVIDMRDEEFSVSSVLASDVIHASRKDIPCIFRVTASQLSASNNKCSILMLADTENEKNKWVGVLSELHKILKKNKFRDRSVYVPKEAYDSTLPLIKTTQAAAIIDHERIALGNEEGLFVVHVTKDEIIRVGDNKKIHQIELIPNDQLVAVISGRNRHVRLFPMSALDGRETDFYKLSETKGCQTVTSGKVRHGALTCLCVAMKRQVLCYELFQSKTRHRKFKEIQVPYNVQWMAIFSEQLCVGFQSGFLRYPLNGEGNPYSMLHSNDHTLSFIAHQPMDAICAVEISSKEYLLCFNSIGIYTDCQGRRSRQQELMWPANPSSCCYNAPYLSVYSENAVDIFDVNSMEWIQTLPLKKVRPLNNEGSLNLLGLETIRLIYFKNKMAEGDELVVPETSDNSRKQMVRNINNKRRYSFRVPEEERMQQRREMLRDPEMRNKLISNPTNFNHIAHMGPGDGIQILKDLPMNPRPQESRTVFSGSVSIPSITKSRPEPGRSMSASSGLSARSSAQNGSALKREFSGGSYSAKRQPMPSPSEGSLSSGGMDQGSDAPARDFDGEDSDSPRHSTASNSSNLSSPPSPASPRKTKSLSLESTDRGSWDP
UniProt O75419: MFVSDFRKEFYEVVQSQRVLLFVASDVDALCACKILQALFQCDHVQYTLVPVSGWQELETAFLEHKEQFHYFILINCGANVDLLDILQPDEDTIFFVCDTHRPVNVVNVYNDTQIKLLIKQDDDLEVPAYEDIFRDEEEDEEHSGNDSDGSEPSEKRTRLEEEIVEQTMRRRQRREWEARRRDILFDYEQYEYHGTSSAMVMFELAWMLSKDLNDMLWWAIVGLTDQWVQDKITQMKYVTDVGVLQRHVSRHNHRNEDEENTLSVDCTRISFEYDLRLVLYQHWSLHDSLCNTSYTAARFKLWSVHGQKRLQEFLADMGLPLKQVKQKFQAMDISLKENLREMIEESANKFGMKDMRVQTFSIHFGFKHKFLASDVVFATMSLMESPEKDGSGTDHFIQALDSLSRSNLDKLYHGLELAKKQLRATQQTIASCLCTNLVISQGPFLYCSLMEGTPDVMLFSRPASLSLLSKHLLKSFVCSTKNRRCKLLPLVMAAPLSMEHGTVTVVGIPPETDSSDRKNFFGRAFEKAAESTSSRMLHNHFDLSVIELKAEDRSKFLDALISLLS

Some of the results follow.

Compound in one assay: Cc1cc(Nc2cc(N3CCN(C)CC3)nc(Sc3ccc(NC(=O)C4CC4)cc3)n2)n[nH]1 [tozasertib]
Put plainly: log2 fold change, soluble protein after heating vs DMSO (PISA); higher = thermal stabilisation; K562 lysate, 10 uM; active = over 0.2 and 3.5 SD of the protein, either way, in both replicates (recomputed). The gist of the method: (§1)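 Dounce homogenisation of K562 pellets in PBS pH 7.4 with 1 mM MgCl2 produced a crude extract, used at 1 mg/mL protein. Exposure to 10 μM compound lasted 30 min, and aliquots were then heated for 3 min across 48°C-58°C, pooled and brought to 0.5% NP-40 at 4°C. The supernatant after 21,000xg for 90 min was quantified by TMTpro 16plex LC-MS/MS with channel sums equalised. Duplicate values are given as log-two fold change in thermal stability relative to solvent controls.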
As to CDK12 (UniProt Q9NYV4), the log2 fold change was inactive: -0.056.

Take CDC73 (UniProt Q6P1J9): the log2 fold change was inactive: 0.014. Still for that read-out and setting: next, CDK6 (UniProt Q00534): inactive: -0.002. For the target CDK7 (UniProt P50613), the log2 fold change was inactive: 0.023. Same read-out and setting: for CDCA5 (UniProt Q96FF9) the value was inactive: 0.07; for CERS6 isoform 2 (UniProt Q6ZMG9), inactive: 0.132; for CFAP298 (UniProt P57076), inactive: 0.014. For CDK5RAP3 isoform 4 (UniProt Q96JB5), the log2 fold change is inactive: 0.019. On the same count and under the same terms, next, CELF2 isoform 3 (UniProt O95319): inactive: 0.017.

Compound in the next assay: Cc1ccc(-n2nc(C(C)(C)C)cc2NC(=O)Nc2ccc(OCCN3CCOCC3)c3ccccc23)cc1 [doramapimod]
Described as above. Put shortly:
as §1
Take CDC42EP1 (UniProt Q00587): the log2 fold change is inactive: 0.071.

On to CDCA2 (UniProt Q69YH5), for which the log2 fold change is inactive: -0.014. For CEP192 (UniProt Q8TEP8), the log2 fold change was inactive: 0.002. Regarding CEP85 isoform 2 (UniProt Q6P2H3), the log2 fold change is inactive: -0.011. CDC34 (UniProt P49427): the log2 fold change was inactive: 0.009.

Regarding CENPU (UniProt Q71F23), the log2 fold change is inactive: 0.052. Regarding CENPK (UniProt Q9BS16), the log2 fold change is inactive: -0.092. As to CDK1 (UniProt P06493), the log2 fold change was inactive: 0.019. CEP44 (UniProt Q9C0F1): the log2 fold change was inactive: 0.

Regarding CDC42BPA isoform 6 (UniProt Q5VT25), the log2 fold change was inactive: 0.075. With CEP76 (UniProt Q8TAP6), the log2 fold change is inactive: 0.085. CEP120 (UniProt Q8N960): the log2 fold change is inactive: 0.107.

In the case of CDC45 isoform 3 (UniProt O75419), the log2 fold change was inactive: -0.002.
